Experimental data taken from paper doi:10.1101/2021.06.16.448340 (bioRxiv, 2021).
No constants are given. Whether binding was seen depends on the method and setting. A result given as binding can be weak or reduced; the word gives no strength. For some of these results: Where a sequence is shown, tags or fusion partners need not be part of it.

Assays:
Assay in all cases: cryo-EM structure
[1] = biological target: T1, CtaD with Strep-tag, subunit I homologue of complex IV (Corynebacterium glutamicum) (UniProt Q79VD7)
T1 sequence: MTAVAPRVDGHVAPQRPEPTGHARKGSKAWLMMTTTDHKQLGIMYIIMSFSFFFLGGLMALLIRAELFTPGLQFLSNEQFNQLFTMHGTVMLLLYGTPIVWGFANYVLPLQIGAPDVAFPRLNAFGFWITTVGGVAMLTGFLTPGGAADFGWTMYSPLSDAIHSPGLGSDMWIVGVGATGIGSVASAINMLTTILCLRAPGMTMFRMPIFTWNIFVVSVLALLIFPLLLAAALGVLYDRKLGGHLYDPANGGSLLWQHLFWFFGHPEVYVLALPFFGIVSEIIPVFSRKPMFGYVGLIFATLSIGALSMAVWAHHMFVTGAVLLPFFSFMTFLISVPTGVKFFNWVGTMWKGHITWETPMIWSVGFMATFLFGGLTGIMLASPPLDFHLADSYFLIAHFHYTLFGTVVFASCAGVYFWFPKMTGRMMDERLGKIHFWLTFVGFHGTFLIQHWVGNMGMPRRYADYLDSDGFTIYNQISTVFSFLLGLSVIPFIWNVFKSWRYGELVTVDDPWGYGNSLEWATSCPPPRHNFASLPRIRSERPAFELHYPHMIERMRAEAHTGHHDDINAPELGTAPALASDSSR

[2] = biological target: T2, CtaE, subunit of complex IV (Corynebacterium glutamicum) (UniProt Q9AEL8)
T2 sequence: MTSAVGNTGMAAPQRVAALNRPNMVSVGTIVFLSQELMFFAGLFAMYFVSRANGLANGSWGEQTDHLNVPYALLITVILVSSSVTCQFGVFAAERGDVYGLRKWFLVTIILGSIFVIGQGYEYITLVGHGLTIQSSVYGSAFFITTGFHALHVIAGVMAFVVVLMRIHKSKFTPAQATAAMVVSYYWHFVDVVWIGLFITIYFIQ

[3] = biological target: T3, CtaF, subunit of complex IV (Corynebacterium glutamicum) (UniProt Q8NNK3)
T3 sequence: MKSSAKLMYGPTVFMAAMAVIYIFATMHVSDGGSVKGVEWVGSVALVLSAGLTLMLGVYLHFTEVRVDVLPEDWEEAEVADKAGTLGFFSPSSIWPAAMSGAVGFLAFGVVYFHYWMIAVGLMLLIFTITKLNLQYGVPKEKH

[4] = biological target: T4, QcrB, cytochrome b subunit of complex III (Corynebacterium glutamicum) (UniProt Q79VE9)
T4 sequence: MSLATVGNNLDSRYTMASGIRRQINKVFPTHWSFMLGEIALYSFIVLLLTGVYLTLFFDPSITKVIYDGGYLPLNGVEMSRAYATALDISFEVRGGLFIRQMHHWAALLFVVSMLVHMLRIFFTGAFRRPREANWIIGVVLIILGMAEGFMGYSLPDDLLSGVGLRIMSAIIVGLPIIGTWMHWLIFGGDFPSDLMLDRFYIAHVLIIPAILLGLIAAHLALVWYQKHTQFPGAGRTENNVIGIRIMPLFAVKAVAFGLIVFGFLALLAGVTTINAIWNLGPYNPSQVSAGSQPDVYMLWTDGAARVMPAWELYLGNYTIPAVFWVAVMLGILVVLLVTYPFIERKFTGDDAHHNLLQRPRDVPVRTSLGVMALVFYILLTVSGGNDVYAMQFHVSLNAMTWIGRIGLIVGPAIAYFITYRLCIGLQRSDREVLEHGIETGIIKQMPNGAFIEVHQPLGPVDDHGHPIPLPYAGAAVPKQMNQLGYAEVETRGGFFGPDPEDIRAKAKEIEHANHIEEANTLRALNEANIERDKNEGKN

AscB (from UniProt Q8NSJ8)
binding [1]: binds

AscC (Corynebacterium glutamicum)
binding [2]: binds
binding [3]: binds
binding [4]: binds
